Measurements published in publication PMC11199980.
These are yes or no findings as the source states them, for the method shown. In cells and extracts the contact can be indirect. Some entries that bind do so weakly or less than the wild type.

Chains of the proteins cited; added tags and fusions are not shown. Lines headed by an entry give the natural chain unless they say otherwise; changes in a name come on top.
UniProt P40763: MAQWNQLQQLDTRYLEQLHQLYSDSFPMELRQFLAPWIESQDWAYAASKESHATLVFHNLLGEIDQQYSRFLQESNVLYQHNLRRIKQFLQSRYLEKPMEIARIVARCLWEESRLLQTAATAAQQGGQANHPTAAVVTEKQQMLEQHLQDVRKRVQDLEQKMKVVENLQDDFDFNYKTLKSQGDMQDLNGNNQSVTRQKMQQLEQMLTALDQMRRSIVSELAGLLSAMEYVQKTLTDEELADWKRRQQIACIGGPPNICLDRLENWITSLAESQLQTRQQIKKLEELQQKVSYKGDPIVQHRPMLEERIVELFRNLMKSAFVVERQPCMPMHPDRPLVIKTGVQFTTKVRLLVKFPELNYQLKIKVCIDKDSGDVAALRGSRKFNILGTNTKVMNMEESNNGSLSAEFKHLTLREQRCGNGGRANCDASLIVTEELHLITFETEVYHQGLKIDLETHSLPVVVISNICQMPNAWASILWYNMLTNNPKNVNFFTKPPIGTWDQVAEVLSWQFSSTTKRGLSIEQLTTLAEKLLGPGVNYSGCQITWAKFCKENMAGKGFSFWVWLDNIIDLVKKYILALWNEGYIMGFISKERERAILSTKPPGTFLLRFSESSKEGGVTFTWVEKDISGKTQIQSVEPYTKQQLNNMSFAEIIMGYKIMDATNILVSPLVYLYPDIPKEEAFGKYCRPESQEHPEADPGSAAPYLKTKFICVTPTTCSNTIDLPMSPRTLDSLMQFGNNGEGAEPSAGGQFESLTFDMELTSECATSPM
UniProt Q9BRP0: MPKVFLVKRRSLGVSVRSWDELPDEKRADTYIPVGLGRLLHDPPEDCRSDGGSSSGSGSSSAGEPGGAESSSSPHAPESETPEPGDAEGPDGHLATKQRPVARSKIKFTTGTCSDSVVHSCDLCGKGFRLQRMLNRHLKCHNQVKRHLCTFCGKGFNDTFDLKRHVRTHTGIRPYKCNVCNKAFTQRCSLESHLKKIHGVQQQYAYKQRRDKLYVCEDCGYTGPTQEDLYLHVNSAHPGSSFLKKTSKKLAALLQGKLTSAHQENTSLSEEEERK

What was measured:
[1] = molecular target: constitutively active STAT3 (STAT3C, A662C N664C) (UniProt P40763); experiment: co-IP; OVOL2 with STAT3-WT, STAT3C or STAT3D from plasmids; whole-cell lysates immunoprecipitated with an anti-Flag antibody; Western blot
[2] = molecular target: dominant negative STAT3 (STAT3D, Y705F) (UniProt P40763); experiment: as above
[3] = molecular target: STAT3 WT, expressed from a plasmid (UniProt P40763); experiment: as above
[4] = molecular target: signal transducer and activator of transcription 3 (STAT3), endogenous in MCF7 cells (human (endogenous in MCF7)) (UniProt P40763); experiment: co-IP; endogenous proteins; MCF7 lysates immunoprecipitated with an anti-STAT3 antibody and protein A/G beads, 4 °C overnight; lysis buffer 150 mM NaCl, 20 mM Tris-HCl, 1 mM EDTA, 1 mM EGTA, 1% Triton X-100; Western blot

binding [1]	binding [2]	binding [3]	binding [4]	Substance
binds	no binding	binds		OVOL2, expressed from a plasmid for the co-IP with STAT3 variants (from UniProt Q9BRP0 1-275)
			binds	ovo‐like 2 (OVOL2), endogenous in MCF7 cells (from UniProt Q9BRP0 1-275)
